Reference: patent US10736900B2, “Combinations of an FGFR inhibitor and an IGF1R inhibitor” (ASTEX THERAPEUTICS LTD, priority 2014, dated 2020)

Tests used:
DMS114 cells = test: Incucyte proliferation (% confluence over time), DMS114 cells, long-term treatment; type: cell-based; conditions: compound A 1 microM, BMS-754807 300 nM, GSK1838705A 1 microM, each alone
[1] = tested on: most sensitive cancer cell lines; test: Cell based proliferation assay (alamar blue assay), cancer cell lines; conditions: read-out: IC50 in the most sensitive cancer cell lines

With `COc1cc(OC)cc(N(CCNC(C)C)c2ccc3ncc(-c4cnn(C)c4)nc3c2)c1` [compound A] the “proliferation (% confluence over time), single agent” value (DMS114 cells) was “initially blocked the proliferation, but after two-three weeks emerging outgrowth of compound insensitive cells was observed” and the IC50 [1] was less than 10 nM.
